The text below walks through data of patent US20050142088A1 (priority 2002, published 2005).

Data set [1] deals with SD-type SPF rats. Put plainly: hair growth promoting action of tape preparation/lotion on shaved back of rats. Conditions: conclusion from the tape and lotion experiments. It counts as in vivo, rat. The protocol: First, a description of a tape preparation used in the present invention will be given. […] The formulation shown in FIG. 1 was weighed out precisely into a glass vial, an appropriate amount of water was added and dilution and stirring were carried out, and then ultrasound treatment was carried out to obtain a homogeneous solution. The homogeneous solution was applied uniformly onto a 20 cm×15 cm polyethylene nonwoven cloth.
Afterthere, drying was carried out overnight at 40° C., and then a fluoropolymer coated polyester film was put on, thus obtaining the tape preparation used in the present invention.
The tape preparation obtained as described above was cut into 4 cm×3 cm pieces, thus preparing an active tape preparation. SD-type SPF rats were used as test animals. Note that the rats used in the experiment were 10 weeks or 8 weeks old.
On the day before the experiment, both the 10-week-old rats and the 8-week-old rats were anesthetized with ether, and then the hair on the back was shaved off using electric clippers and an electric shaver. Furthermore, on the day of the experiment, hair was again removed from the hair-removed sites using an electric shaver. […]

Data set [2] has as its system rats. Conditions: dose of approximately 100 mg/kg or more.

Turning to `COc1cc2c(cc1OC)C(=O)C(CC1CCN(Cc3ccccc3)CC1)C2` (centres unmarked) [donepezil, 1-benzyl4-[(5,6-dimethoxy-1-indanon)-2-yl]methylpiperidine], the “hair growth action (overall conclusion)” value in data set [1] is reported as “excellent hair growth action”. The serious toxicity entry in data set [2] is “serious toxicity was not exhibited”.
